Reference: paper PMC9468337
No constants are given. Whether binding was seen depends on the method and setting. In cells and extracts the contact can be indirect. A result given as binding can be weak or reduced; the word gives no strength.

Chains of the proteins cited; added tags and fusions are not shown. Lines headed by an entry give the natural chain unless they say otherwise; changes in a name come on top.
UniProt Q14703: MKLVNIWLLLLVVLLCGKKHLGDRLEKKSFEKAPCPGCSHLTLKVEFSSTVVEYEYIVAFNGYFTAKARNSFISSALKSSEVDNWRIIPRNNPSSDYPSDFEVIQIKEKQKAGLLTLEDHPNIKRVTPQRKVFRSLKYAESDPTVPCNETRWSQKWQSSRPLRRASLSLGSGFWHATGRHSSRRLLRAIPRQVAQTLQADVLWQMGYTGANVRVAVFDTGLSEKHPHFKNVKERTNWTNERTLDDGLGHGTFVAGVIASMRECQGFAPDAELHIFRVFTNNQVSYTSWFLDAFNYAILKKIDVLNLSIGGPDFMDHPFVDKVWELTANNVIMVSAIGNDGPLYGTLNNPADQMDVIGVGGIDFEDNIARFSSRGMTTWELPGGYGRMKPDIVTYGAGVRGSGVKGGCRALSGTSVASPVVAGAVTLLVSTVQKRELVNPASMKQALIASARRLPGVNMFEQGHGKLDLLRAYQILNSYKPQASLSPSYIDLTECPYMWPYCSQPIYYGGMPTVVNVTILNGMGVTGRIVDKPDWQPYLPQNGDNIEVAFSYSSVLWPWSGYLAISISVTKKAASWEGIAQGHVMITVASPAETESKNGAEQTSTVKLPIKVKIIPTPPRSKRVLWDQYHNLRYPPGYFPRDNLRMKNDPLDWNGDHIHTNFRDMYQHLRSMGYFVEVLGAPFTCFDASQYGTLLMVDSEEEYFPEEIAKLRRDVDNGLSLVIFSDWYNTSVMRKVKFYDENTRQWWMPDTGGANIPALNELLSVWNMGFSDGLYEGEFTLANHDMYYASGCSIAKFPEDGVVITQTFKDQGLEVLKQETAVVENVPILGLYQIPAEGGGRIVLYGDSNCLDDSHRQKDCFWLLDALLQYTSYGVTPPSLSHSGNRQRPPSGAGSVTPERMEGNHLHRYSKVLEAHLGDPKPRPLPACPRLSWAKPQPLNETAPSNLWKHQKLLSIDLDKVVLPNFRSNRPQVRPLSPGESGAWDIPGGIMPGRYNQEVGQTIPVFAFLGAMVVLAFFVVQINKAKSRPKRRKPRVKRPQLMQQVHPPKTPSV

Key:
[1] = molecular target: T1, TMEM251 (GNPTAB cleavage and activity factor), short isoform (human) (UniProt Q8N6I4); assay: co-IP; reciprocal IP 48 h after transfection; lysis in 20 mM Tris pH 8.0, 150 mM NaCl, 1% Triton; anti-FLAG M2, anti-V5 or anti-HA beads at 4 °C; washed 4 times with lysis buffer; western blot
T1 sequence: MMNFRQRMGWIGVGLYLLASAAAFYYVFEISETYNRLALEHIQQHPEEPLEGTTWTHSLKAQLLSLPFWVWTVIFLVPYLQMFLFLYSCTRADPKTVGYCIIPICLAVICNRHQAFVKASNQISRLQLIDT

[2] = molecular target: site-1 protease S1P (S414A) (UniProt Q14703); assay: as above

site-1 protease S1P (S414A) (from UniProt Q14703) (enzyme)
binding [1]: binds

B1: TMEM251 (GNPTAB cleavage and activity factor), short isoform (protein, UniProt Q8N6I4-2 1-131)
chain: T1 sequence
binding [2]: binds
